Consider 10 molecules from PMC4076869.

Sequences of proteins named here, by UniProt entry; tags and fusion partners are left off. A change or cut given only in a name is not applied to a line headed by its entry.
UniProt Q14209: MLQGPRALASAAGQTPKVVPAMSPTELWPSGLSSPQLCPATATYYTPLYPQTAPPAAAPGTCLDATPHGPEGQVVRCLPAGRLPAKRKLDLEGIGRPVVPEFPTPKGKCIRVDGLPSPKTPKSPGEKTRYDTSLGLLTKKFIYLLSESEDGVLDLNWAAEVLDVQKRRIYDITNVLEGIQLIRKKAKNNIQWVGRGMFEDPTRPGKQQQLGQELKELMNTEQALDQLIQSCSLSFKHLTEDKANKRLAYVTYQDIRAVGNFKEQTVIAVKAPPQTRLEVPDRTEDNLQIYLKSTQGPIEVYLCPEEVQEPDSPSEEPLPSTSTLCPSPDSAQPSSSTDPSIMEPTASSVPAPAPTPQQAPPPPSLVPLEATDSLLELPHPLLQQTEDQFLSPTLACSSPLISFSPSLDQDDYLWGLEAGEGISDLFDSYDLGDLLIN
UniProt O00716: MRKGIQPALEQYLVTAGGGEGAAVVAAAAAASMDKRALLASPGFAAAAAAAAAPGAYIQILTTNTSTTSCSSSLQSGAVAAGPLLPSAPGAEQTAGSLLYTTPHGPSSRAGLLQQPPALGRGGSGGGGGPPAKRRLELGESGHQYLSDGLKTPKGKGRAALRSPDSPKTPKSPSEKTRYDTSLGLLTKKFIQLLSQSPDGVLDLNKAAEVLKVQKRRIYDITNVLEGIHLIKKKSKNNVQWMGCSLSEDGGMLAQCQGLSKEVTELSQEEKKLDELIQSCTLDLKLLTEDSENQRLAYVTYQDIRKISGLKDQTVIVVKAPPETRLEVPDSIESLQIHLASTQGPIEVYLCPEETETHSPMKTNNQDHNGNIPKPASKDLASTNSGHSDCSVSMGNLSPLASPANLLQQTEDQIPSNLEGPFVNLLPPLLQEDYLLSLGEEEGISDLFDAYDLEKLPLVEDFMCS
UniProt Q16254: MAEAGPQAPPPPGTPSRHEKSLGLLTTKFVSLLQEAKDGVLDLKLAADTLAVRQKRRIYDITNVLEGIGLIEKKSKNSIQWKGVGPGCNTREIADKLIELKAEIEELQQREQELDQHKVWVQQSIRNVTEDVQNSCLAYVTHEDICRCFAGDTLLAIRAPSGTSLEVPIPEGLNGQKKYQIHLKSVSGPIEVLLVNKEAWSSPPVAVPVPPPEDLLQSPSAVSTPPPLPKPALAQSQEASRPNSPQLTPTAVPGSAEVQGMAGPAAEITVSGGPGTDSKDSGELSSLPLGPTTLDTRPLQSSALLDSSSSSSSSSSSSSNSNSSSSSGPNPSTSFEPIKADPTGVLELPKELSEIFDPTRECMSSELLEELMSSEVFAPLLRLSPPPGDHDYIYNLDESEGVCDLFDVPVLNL

What all share (test): co-IP; each Rb-HA construct co-transfected into cells co-expressing E1a or a Myc-tagged E2F; E1a or the E2F immunoprecipitated, immunoblot for the associated Rb-HA
(In general: In western blotting, separated proteins are transferred to a membrane and probed.)

Assay [1] concerns the target E2F-2 transcription factor (Myc tagged) (UniProt Q14209).
The target of assay [2] is E2F-3 transcription factor (Myc tagged) (UniProt O00716).
Assay [3] addresses E2F-4 transcription factor (Myc tagged) (UniProt Q16254).

Changes are numbered by the printed parent chain. These are yes or no findings as the source states them, for the method shown. Binding seen in cells or lysates may run through a third protein. Some results given as binding are weak or reduced against the parent protein; the word gives no strength. Where a sequence is shown, tags or fusion partners need not be part of it.

B1: Rb-HA single Cdk site construct S230 (mono-phosphorylated Rb isoform) (protein, UniProt P06400 1-928)
chain: MPPKAPRKTAATAAAAAAEPPAPPPPPPPEEDPEQDSGPEDLPLVRLEFEETEEPDFTALCQKLKIPDHVRERAWLTWEKVSSVDGVLGGYIQKKKELWGICIFIAAVDLDEMSFTFTELQKNIEISVHKFFNLLKEIDTSTKVDNAMSRLLKKYDVLFALFSKLERTCELIYLTQPSSSISTEINSALVLKVSWITFLLAKGEVLQMEDDLVISFQLMLCVLDYFIKLSPPMLLKEPYKTAVIPINGAPRAPRRGQNRSARIAKQLENDTRIIEVLCKEHECNIDEVKNVYFKNFIPFMNSLGLVTSNGLPEVENLSKRYEEIYLKNKDLDARLFLDHDKTLQTDSIDSFETQRAPRKSNLDEEVNVIPPHAPVRTVMNTIQQLMMILNSASDQPSENLISYFNNCTVNPKESILKRVKDIGYIFKEKFAKAVGQGCVEIGSQRYKLGVRLYYRVMESMLKSEEERLSIQNFSKLLNDNIFHMSLLACALEVVMATYSRSTSQNLDSGTDLSFPWILNVLNLKAFDFYKVIESFIKAEGNLTREMIKHLERCEHRIMESLAWLSDSPLFDLIKQSKDREGPTDHLESACPLNLPLQNNHTAADMYLAPVRAPKKKGSTTRVNSTANAETQATSAFQTQKPLKSTSLSLFYKKVYRLAYLRLNTLCERLLSEHPELEHIIWTLFQHTLQNEYELMRDRHLDQIMMCSMYGICKVKNIDLKFKIIVTAYKDLPHAVQETFKRVLIKEEEYDSIIVFYNSVFMQRLKTNILQYASTRPPTLAPIPHIPRAPYKFPSAPLRIPGGNIYIAPLKAPYKISEGLPAPTKMAPRSRILVSIGESFGTSEKFQKINQMVCNSDRVLKRSAEGSNPPKPLKKLRFDIEGSDEADGSKHLPGESKFQQKLAEMTSTRTRMQKQKMNDSMDTSNKEEK
modifications: phosphate on S230 (mono-phosphorylated in cells)
Turning to B1, the binding result in assay [1], in assay [2] and in assay [3] was “binds” each time.

B2: Rb-HA single Cdk site construct S780 (mono-phosphorylated Rb isoform) (protein, UniProt P06400 1-928)
chain: B1 chain with S230A, A780S
modifications: phosphate on S780 (mono-phosphorylated in cells)
Take B2: the binding entry in assay [1], in assay [2] and in assay [3] was “binds” in each case.

B3: Rb-HA single Cdk site construct S249 (mono-phosphorylated Rb isoform) (protein, UniProt P06400 1-928)
chain: B1 chain with S230A, A249S
modifications: phosphate on S249 (mono-phosphorylated in cells)
For B3, the binding result in assay [1], in assay [2] and in assay [3] was “binds” each time.

B4: Rb-HA single Cdk site construct T821 (mono-phosphorylated Rb isoform) (protein, UniProt P06400 1-928)
chain: B1 chain with S230A, A821T
modifications: phosphate on T821 (mono-phosphorylated in cells)
For the molecule B4, the binding result in assay [1] and in assay [2] was “binds” in each case.

B5: Rb-HA single Cdk site construct T826 (mono-phosphorylated Rb isoform) (protein, UniProt P06400 1-928)
chain: B1 chain with S230A, A826T
modifications: phosphate on T826 (mono-phosphorylated in cells)
Take B5: the binding entry in assay [1], in assay [2] and in assay [3] was “binds” in each case.

B6: Rb-HA single Cdk site construct S811 (mono-phosphorylated Rb isoform) (protein, UniProt P06400 1-928)
chain: B1 chain with S230A, A811S
modifications: phosphate on S811 (mono-phosphorylated in cells)
In the case of B6, the binding entry in assay [1], in assay [2] and in assay [3] was “binds” in each case.

B7: Rb-HA single Cdk site construct S807 (mono-phosphorylated Rb isoform) (protein, UniProt P06400 1-928)
chain: B1 chain with S230A, A807S
modifications: phosphate on S807 (mono-phosphorylated in cells)
With B7, the binding result in assay [1] and in assay [2] was “binds” in each case.

B8: Rb-HA single Cdk site construct S795 (mono-phosphorylated Rb isoform) (protein, UniProt P06400 1-928)
chain: B1 chain with S230A, A795S
modifications: phosphate on S795 (mono-phosphorylated in cells)
Regarding B8, the binding result in assay [1] and in assay [2] was “binds” each time.

B9: Rb-HA single Cdk site construct T373 (mono-phosphorylated Rb isoform) (protein, UniProt P06400 1-928)
chain: B1 chain with S230A, A373T
modifications: phosphate on T373 (mono-phosphorylated in cells)
Turning to B9, the binding entry in assay [1], in assay [2] and in assay [3] was “binds” in each case.

B10: Rb-HA single Cdk site construct S788 (mono-phosphorylated Rb isoform) (protein, UniProt P06400 1-928)
chain: B1 chain with S230A, A788S
modifications: phosphate on S788 (mono-phosphorylated in cells)
Turning to B10, the binding entry in assay [1], in assay [2] and in assay [3] was “binds” each time.
